Assay: peptide synthesis
Details: conjugation step

Substance	conjugation yield
K16Cys-S-S-[PEG6-IPQA]	59% yield
K16-Cys-SMal-[PEG3-N-(4-((3-trimethylstannyl)amino)quinazolin-6-yl)acrylamide]	55% yield
